Results: patent US20250099614A1
Results are given in words; binding and its absence hold for the method and conditions named. Some binding calls cover weakened binding; strength is not graded here.

Amino acid sequences for entries named in this document (tags omitted). A change or cut given only in a name is not applied to a line headed by its entry.
UniProt Q01196: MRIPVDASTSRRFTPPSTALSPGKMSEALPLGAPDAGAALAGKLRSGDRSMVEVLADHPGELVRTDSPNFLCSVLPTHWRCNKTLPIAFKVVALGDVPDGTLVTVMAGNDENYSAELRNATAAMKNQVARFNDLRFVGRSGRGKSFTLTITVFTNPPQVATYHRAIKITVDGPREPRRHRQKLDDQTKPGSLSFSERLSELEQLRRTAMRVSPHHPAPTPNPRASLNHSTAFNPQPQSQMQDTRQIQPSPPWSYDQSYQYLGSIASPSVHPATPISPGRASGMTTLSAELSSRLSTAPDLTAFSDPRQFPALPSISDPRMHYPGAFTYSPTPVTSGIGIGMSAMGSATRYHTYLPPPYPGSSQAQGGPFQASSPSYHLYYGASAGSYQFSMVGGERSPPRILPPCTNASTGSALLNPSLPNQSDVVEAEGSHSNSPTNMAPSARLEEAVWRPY

Columns and labels:
[1] = biological target: Runt-related transcription factor 1 (RUNX1) (human) (UniProt Q01196); assay: summary of Examples 1 to 6; co-localization in C-PVR cells
[2] = biological target: Runt-related transcription factor 1 (RUNX1) (human) (UniProt Q01196); assay: immunocytochemistry of mRNA-transfected C-PVR cells (FIG. 3C)
[3] = biological target: Runt-related transcription factor 1 (RUNX1) (human) (UniProt Q01196); assay: immunocytochemistry and confocal microscopy, co-localization in mRNA-transfected C-PVR cells

binding [1]: binds | binding [2]: binds | binding [3]: binds
B1: CBFbeta(1-165)-SMMHC(1527-1877) (CBFbeta-SMMHCΔC95) (protein)
chain: MPRVVPDQRSKFENEEFFRKLSRECEIKYTGFRDRPHEERQARFQNACRDGRSEIAFVATGTNLSLQFFPASWQGEQRQTPSREYVDLEREAGKVYLKAPMILNGVCVIWKGWIDLQRLDGMGCLEFDEERAQQEDALAQQAFEEARRRTREFEDRDRSHREEMEVHELEKSKRALETQMEEMKTQLEELEDELQATEDAKLRLEVNMQALKGQFERDLQARDEQNEEKRRQLQRQLHEYETELEDERKQRALAAAAKKKLEGDLKDLELQADSAIKGREEAIKQLRKLQAQMKDFQRELEDARASRDEIFATAKENEKKAKSLEADLMQLQEDLAAAERARKQADLEKEELAEELASSLSGRNALQDEKRRLEARIAQLEEELEEEQGNMEAMSDRVRKATQQAEQLSNELATERSTAQKNESARQQLERQNKELRSKLHEMEGAVKSKFKSTIAALEAKIAQLEEQVEQEAREKQAATKSLKQKDKKLKEILLQVEDERKMAEQYKEQAEKGNA
